US7186534B1 (The Trustees of Columbia University in the City of New York, priority 1997, dated 2007)
At least one structure is not confirmed: it was looked up by name or label, or the drawing left a doubt.

Key:
[1] = target: T1, mouse 9cRDH (Mus musculus, UniProt O55240); assay: Inhibition of recombinant mouse 9cRDH activity (9-cis-retinol oxidation, CHO cell homogenate, HPLC); type: biochemical; settings: 10 μM steroid, equimolar to substrate; forward (retinol oxidation) or reverse (retinaldehyde reduction) direction
T1 sequence (O55240 1-318): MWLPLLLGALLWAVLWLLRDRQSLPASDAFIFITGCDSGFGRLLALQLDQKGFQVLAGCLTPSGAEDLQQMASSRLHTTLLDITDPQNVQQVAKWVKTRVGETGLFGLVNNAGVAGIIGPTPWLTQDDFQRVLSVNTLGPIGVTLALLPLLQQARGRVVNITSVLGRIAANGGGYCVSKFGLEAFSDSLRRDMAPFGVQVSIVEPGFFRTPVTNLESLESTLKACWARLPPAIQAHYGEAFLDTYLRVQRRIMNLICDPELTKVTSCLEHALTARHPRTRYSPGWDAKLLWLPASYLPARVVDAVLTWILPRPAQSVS

[2] = target: T2, human 9-cis retinol dehydrogenase (9cRDH) (Homo sapiens, UniProt Q92781); assay: Inhibition of recombinant human 9cRDH activity (9-cis-retinol oxidation, CHO cell homogenate, HPLC); type: biochemical; settings: 10 μM steroid, equimolar to substrate; forward (retinol oxidation) or reverse (retinaldehyde reduction) direction
T2 sequence (Q92781 1-318): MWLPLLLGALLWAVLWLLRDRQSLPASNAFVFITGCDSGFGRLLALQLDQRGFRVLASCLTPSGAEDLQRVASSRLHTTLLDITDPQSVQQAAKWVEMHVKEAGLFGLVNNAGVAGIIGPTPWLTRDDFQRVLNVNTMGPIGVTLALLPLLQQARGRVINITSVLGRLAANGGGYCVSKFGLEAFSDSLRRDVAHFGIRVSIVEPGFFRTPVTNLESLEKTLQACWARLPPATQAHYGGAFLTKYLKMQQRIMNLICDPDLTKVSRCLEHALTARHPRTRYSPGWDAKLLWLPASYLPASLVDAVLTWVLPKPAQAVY

Structure (SMILES): C[C@]12CC[C@@H]3c4ccc(O)cc4CC[C@H]3[C@@H]1CCC2=O [estrone]
- inhibition of mouse 9cRDH activity by hydroxysteroids [1]: none of these hydroxysteroids inhibited
- inhibition of human 9cRDH activity by hydroxysteroids [2]: none of these hydroxysteroids inhibited
